Results deposited as PubChem BioAssay AID686938 (Drosophila RNAi Screening Center, 2013).
Screen: 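Fly genes required for calcium entry once internal stores are emptied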 (primary screen). Cell system: Drosophila S2R+ cells. Reagents: long dsRNA against Drosophila genes, about 0.25 µg dsRNA per well, roughly 10,000 cells. Timing: 5 days of knock-down before the calcium assay. Treatment: thapsigargin (SERCA pump blocker) to empty calcium stores; entry signal taken 4 min after adding it. Read-out: 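Per-well fluo-4 fluorescence in two replicates, unnormalised, measured in resting cells and 4 min after store depletion by the SERCA blocker thapsigargin; ratio of the two present in few wells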. Direction: calcium entry signal: higher = stronger calcium signal after store depletion; entry to resting ratio: higher = more calcium entry relative to resting level; resting calcium signal: higher = higher resting calcium signal. Active means: 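Called when the plate z-score of the entry-to-rest ratio, mean of duplicates, falls below −3; wells with low overall dye signal (Fmax z below −2) or more than five off-targets excluded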. Calls: active = strongly reduced calcium entry; inactive = no strong reduction.
In all, the deposit lists about 23,000 reagents; this is a random part of those with a known target gene and a result. Over the whole deposit, 75 (0.33%) got an active call. 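Raw plate signals without normalisation; calls rest on plate z-scores that were not deposited; ratio present for only 364 wells.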 A number with no mark means an inactive call. A plus sign joins genes that one reagent is predicted to hit. Not given: the dose of the treatment.

no.	target gene	amplicon	calcium entry signal, replicate 1 (fluorescence units)	calcium entry signal, replicate 2 (fluorescence units)	entry to resting ratio	resting calcium signal, replicate 1 (fluorescence units)	resting calcium signal, replicate 2 (fluorescence units)
1	Ars2 (Arsenic resistance protein 2)	DRSC04893	3.92e7			2.03e7	
2	CG12885	DRSC14572	1.95e7	3.68e7		1.11e7	1.63e7
3	aurA (aurora A)	DRSC16905	4.25e7	4.14e7		2.09e7	1.93e7
4	CR6900 (pseudo)	DRSC20018	5.08e7	3.47e7		2.29e7	1.54e7
5	csul (capsuleen)	DRSC07599	4.75e7	4.17e7		2.03e7	2.02e7
6	CG13578	DRSC04214	4.01e7	4.16e7		2.01e7	1.71e7
7	Sod2 (Superoxide dismutase 2 (Mn))	DRSC07554	4.16e7	4.28e7		1.87e7	2.15e7
8	CG14736	DRSC14956	3.17e7	2.46e7		1.57e7	1.32e7
9	eater	DRSC15969	4.00e7	6.07e7		1.94e7	3.21e7
10	eater	DRSC22254	2.16e7	3.33e7		1.15e7	1.57e7
11	Pop1 (POP1 ribonuclease P/MRP subunit)	DRSC17739	2.56e7	4.10e7		1.25e7	1.74e7
12	CG14441	DRSC17934	3.52e7	3.61e7		1.79e7	1.86e7
13	CG13170	DRSC06298	2.45e7	3.44e7		1.34e7	1.62e7
14	Polr3C (RNA polymerase III subunit C)	DRSC14490	2.92e7	3.97e7		1.24e7	1.78e7
15	Tbc1d15-17 (TBC1 domain family member 15/17)	DRSC00313	4.60e7			2.09e7	
16	E2f2 (E2F transcription factor 2)	DRSC03320	3.01e7			1.55e7	
17	Mat89Ba (Maternal transcript 89Ba)	DRSC14540	2.34e7	2.05e7		1.36e7	1.11e7
18	CG9372	DRSC11068	2.49e7	4.90e7		1.30e7	2.35e7
19	CG32023	DRSC08946	3.61e7	3.81e7		1.77e7	1.59e7
20	CG7506	DRSC10860	3.72e7	3.93e7		2.44e7	1.56e7
21	Mgat2	DRSC16347	4.16e7	5.85e7		2.07e7	2.44e7
22	temp (tempura)	DRSC18271	3.53e7	3.68e7		1.67e7	1.72e7
23	COX7AL2 (Cytochrome c oxidase subunit 7A-like 2)	DRSC00099	1.73e7	2.70e7		1.06e7	1.19e7
24	SsRbeta (Signal sequence receptor beta)	DRSC11290	3.92e7	4.57e7		1.75e7	3.01e7
25	CG6324	DRSC19985	3.10e7	2.64e7		1.65e7	1.20e7
26	Ankrd49	DRSC01894	4.01e7	2.44e7		1.85e7	1.22e7
27	CG6184	DRSC15986	3.94e7	3.97e7		4.94e7	2.01e7
28	CG34205	DRSC04149	4.32e7	5.67e7		2.02e7	2.44e7
29	CG34205	DRSC22823	3.11e7	3.95e7		1.51e7	1.73e7
30	CR33317 (pseudo)	DRSC02653	4.37e7	4.77e7		2.16e7	1.95e7
31	CG12498	DRSC18635	3.28e7	5.19e7	1.9	1.77e7	2.04e7
32	CG13891	DRSC08361	3.75e7	4.20e7		1.99e7	1.98e7
33	Obsc (Obscurin)	DRSC04301	4.77e7	2.94e7		2.23e7	1.48e7
34	Obsc (Obscurin)	DRSC04302	3.85e7			1.92e7	
35	Obsc (Obscurin)	DRSC04303	3.86e7	4.41e7		1.83e7	1.95e7
36	Obsc (Obscurin)	DRSC04430	2.97e7	3.81e7		1.71e7	1.68e7
37	Obsc (Obscurin)	DRSC22422	4.32e7	3.46e7		1.97e7	1.42e7

Taken from above:
CG34205 [DRSC04149], calcium entry signal, replicate 2 (fluorescence units) → 5.67e7
Result of Mgat2 [DRSC16347] under “resting calcium signal, replicate 1 (fluorescence units)”: 2.07e7
Result of CG14441 [DRSC17934] under “resting calcium signal, replicate 2 (fluorescence units)”: 1.86e7
Result for Obsc (Obscurin) [DRSC04430] under “calcium entry signal, replicate 2 (fluorescence units)”: 3.81e7
For “resting calcium signal, replicate 1 (fluorescence units)”, SsRbeta (Signal sequence receptor beta) [DRSC11290] reads 1.75e7
CG9372 [DRSC11068], calcium entry signal, replicate 2 (fluorescence units): 4.90e7

More reagents follow.
no.	target gene	amplicon	calcium entry signal, replicate 1 (fluorescence units)	calcium entry signal, replicate 2 (fluorescence units)	entry to resting ratio	resting calcium signal, replicate 1 (fluorescence units)	resting calcium signal, replicate 2 (fluorescence units)
38	CG10019	DRSC00279	3.58e7	3.83e7		1.91e7	1.83e7
39	CG12605	DRSC08286	3.70e7	5.09e7		1.82e7	2.15e7
40	armi (armitage)	DRSC08193	2.97e7	4.34e7		1.56e7	1.82e7
41	Ir7f (Ionotropic receptor 7f)	DRSC18012	2.82e7	4.00e7		1.48e7	1.73e7
42	dpr4 (defective proboscis extension response 4)	DRSC14531	3.19e7	3.34e7		1.57e7	1.69e7
43	dpr4 (defective proboscis extension response 4)	DRSC14929	2.70e7	3.30e7		1.38e7	1.69e7
44	Tim23 (Translocase of inner mitochondrial membrane 23)	DRSC21240	5.70e7	4.25e7		2.96e7	1.94e7
45	STUB1 (STIP1 homology and U-box containing protein 1)	DRSC03282	3.10e7	4.30e7		1.59e7	1.82e7
46	Nna1 (Nna1 carboxypeptidase)	DRSC18993	4.57e7	1.63e7		2.73e7	8.41e6
47	Nna1 (Nna1 carboxypeptidase)	DRSC19404	3.84e7	4.12e7		1.85e7	1.99e7
48	Lsm11	DRSC06238	3.54e7	3.54e7		1.86e7	1.70e7
49	Ugt305A1 (UDP-glycosyltransferase family 305 member A1)	DRSC08541	3.61e7	4.25e7		1.91e7	2.00e7
50	Ssb-c31a (Single stranded-binding protein c31A)	DRSC03443	3.84e7	6.15e7		1.72e7	2.52e7
51	Nep6 (Neprilysin 6)	DRSC19877	2.84e7	2.72e7		1.65e7	1.44e7
52	mRpL13 (mitochondrial ribosomal protein L13)	DRSC02076	4.12e7	4.03e7		1.87e7	1.58e7
53	Patj	DRSC08712	3.78e7	3.86e7		1.79e7	1.86e7
54	verm (vermiform)	DRSC11038	3.70e7	3.64e7		1.74e7	2.48e7
55	lbl (ladybird late)	DRSC16986	4.35e7	4.02e7		5.55e7	1.82e7
56	BCL7-like	DRSC17729	3.88e7	4.27e7		1.90e7	1.94e7
57	CG13247	DRSC11695	2.83e7	4.47e7		1.23e7	1.99e7
58	Dph1 (Diphthamide biosynthesis 1)	DRSC09851	4.00e7	2.48e7		2.97e7	1.22e7
59	Fcp3C (Follicle cell protein 3C)	DRSC18665	4.17e7	5.68e7	2	2.05e7	2.34e7
60	dmrt99B (doublesex-Mab related 99B)	DRSC15045	2.77e7	3.16e7		1.56e7	1.81e7
61	dmrt99B (doublesex-Mab related 99B)	DRSC22977	4.25e7	3.47e7		2.07e7	1.52e7
62	CG10013	DRSC14175	3.79e7	5.04e7		1.67e7	2.26e7
63	CG10477	DRSC09732	2.75e7	6.36e7		1.30e7	2.28e7
64	l(1)G0196 (lethal (1) G0196)	DRSC20591	3.18e7	3.98e7		1.54e7	1.70e7
65	l(1)G0196 (lethal (1) G0196)	DRSC20629	5.24e7	4.82e7		2.24e7	1.92e7
66	CG31523	DRSC12009	2.98e7	4.27e7		1.72e7	2.01e7
67	CG31523	DRSC12337	4.25e7	2.82e7		1.82e7	1.52e7
68	CG31883	DRSC02561	5.52e7			2.59e7	
69	CG15696	DRSC15118	4.10e7	4.61e7		6.04e7	2.08e7
70	dor (deep orange)	DRSC18765	4.28e7	4.74e7		1.91e7	2.36e7
71	CG18577	DRSC15352	2.03e7	2.26e7		1.17e7	1.15e7
72	Med (Medea)	DRSC16737	4.05e7	4.39e7	2.2	1.88e7	2.05e7
73	CG33914	DRSC05033	2.43e7	3.74e7		1.17e7	1.61e7
74	CG33914	DRSC05034	2.21e7	3.84e7		1.22e7	1.65e7
75	Hao + Pex6	DRSC06097	4.93e7	4.37e7		2.10e7	1.84e7
76	Hao + Pex6	DRSC06704	3.99e7	3.81e7		1.87e7	1.47e7
